{"source": "PubChem BioAssay AID540276", "about": "(National Center for Advancing Translational Sciences (NCATS), 2011)", "note": "Screen size: about 300,000 compounds; about 5,400 (1.8%) were called active. Inconclusive results, whose numbers are uncertain, are shown with a selection of clear calls. Calls follow the shape of the full dose curve; tested in HEK293 cells. Potencies beside an inconclusive call are fits to weak or partial responses and may not hold up. % is scaled to controls: 0 for no effect and ±100 for the full control effect; potency is read from the fitted curve at half-maximal effect.", "data": [{"assay": "qHTS for inhibitors of binding or entry into cells for Marburg Virus", "details": "Marburg virus pseudotyped entry inhibition, cell reporter; activity change, negative = inhibition: at 37.8 µM (top of the series) unless noted", "values": [{"smiles": "Cc1ccc(CNC(=O)c2nc(S(=O)(=O)Cc3ccc(C)cc3)ncc2Cl)cc1", "Potency": "inconclusive: 11.2 µM [inhibitor, single point]"}, {"smiles": "Cc1cccc(C(=O)Nc2sc(C)c(-c3ccccc3)c2C#N)c1", "Potency": "inconclusive: 7.08 µM [inhibitor, partial curve, poor fit]"}, {"smiles": "Cc1nnsc1Sc1ccccc1", "Potency": "inconclusive: 35.5 µM [activator, partial curve, poor fit]"}, {"smiles": "CC(C)n1ncc2c(C(=O)N3CCN(Cc4ccc(Cl)s4)CC3)cc(C3CC3)nc21", "Potency": "inconclusive: 17.8 µM [inhibitor, single point]"}, {"smiles": "CC(Sc1nnc(NCc2ccccc2)s1)C(=O)Nc1ccc2c(c1)C(=O)c1ccccc1C2=O", "note": "(stereo unspecified)", "Potency": "inconclusive: 7.08 µM [inhibitor, full curve, poor fit]"}, {"smiles": "CCC/C=C(\\CCC)C(NS(=O)(=O)c1ccc(C(F)(F)F)cc1)c1ccccc1", "note": "(stereo unspecified)", "Potency": "inactive"}, {"smiles": "O=CC1=C(c2ccccc2)Oc2ccccc2O1", "Potency": "active: 7.94 µM"}, {"smiles": "CC(C)(C)c1ccc(C(=O)NC(=S)N2CCCC2)cc1", "activity change, negative = inhibition": "inactive: -16.4% [at 46.1 µM]"}, {"smiles": "O=C(Nc1cccnc1)c1ccc(Br)s1", "activity change, negative = inhibition": "inactive: 17.3%"}, {"smiles": "COc1ccc(C2CC(C(F)(F)F)n3nc(C(N)=O)c(Cl)c3N2)cc1OC", "note": "(stereo unspecified)", "Potency": "inconclusive: 0.92 µM [inhibitor, full curve, poor fit]"}, {"smiles": "NC(=S)N=Nc1c(O)[nH]c2ccc(F)cc12", "activity change, negative = inhibition": "inactive: 1.53%"}, {"smiles": "Cc1cc(NC(=O)c2ccco2)ccc1NC(=O)Cc1cccs1", "activity change, negative = inhibition": "inactive: 23.5%"}, {"smiles": "O=C(CN1CCCCC1)Nc1cccc2c1OCO2", "activity change, negative = inhibition": "inactive: 15.7%"}, {"smiles": "Cc1ccc(C(=O)Nc2ncc3c(n2)CC(c2ccco2)CC3=O)cc1", "note": "(stereo unspecified)", "Potency": "inconclusive: 0.73 µM [inhibitor, single point]"}, {"smiles": "Cc1c(C(=O)Nc2nnc(SCc3ccccc3Cl)s2)cccc1[N+](=O)[O-]", "Potency": "inconclusive: 5.62 µM [activator, single point]"}, {"smiles": "COc1ccccc1CNC(=O)COc1ccc(S(=O)(=O)N2CCCC2)cc1", "activity change, negative = inhibition": "inactive: 0.676% [at 46.1 µM]"}, {"smiles": "CC1CN(S(=O)(=O)c2cccc(C(=O)Nc3ccc4c(c3)CCC4)c2)CC(C)O1", "note": "(stereo unspecified)", "Potency": "active: 11.2 µM"}, {"smiles": "CC(=O)c1c(C)[nH]c(C(=O)CSc2nc3ccccc3c(=O)n2CCCN2CCOCC2)c1C", "Potency": "active: 20.6 µM"}, {"smiles": "O=C(Nc1ccc(NC(=O)c2ccccc2Cl)nc1)c1ccco1", "Potency": "inconclusive: 35.5 µM [inhibitor, single point]"}, {"smiles": "CCN(CC)CCN(Cc1cc2cc(C)ccc2[nH]c1=O)C(=O)Nc1ccccc1OC", "Potency": "inconclusive: 28.2 µM [inhibitor, single point]"}, {"smiles": "COc1ccccc1N1CCN(c2nc3ccccn3c(=O)c2C=O)CC1", "activity change, negative = inhibition": "inactive: -22.4%"}, {"smiles": "Cc1ccc(-n2c(SCC(=O)N3CCN(c4ccccn4)CC3)nnc2N2CCCC2)cc1", "Potency": "inconclusive: 12.6 µM [inhibitor, partial curve, poor fit]"}, {"smiles": "COc1ccc(C(=O)Nc2ccc3c(c2)OCCO3)cc1[N+](=O)[O-]", "Potency": "inconclusive: 10 µM [activator, partial curve, poor fit]"}, {"smiles": "COCc1nc(-c2ccc(-c3ccccc3)nc2OC)no1", "activity change, negative = inhibition": "inactive: 13.9%"}, {"smiles": "Cc1c([N+](=O)[O-])cc(C(=O)N2CCOCC2)cc1[N+](=O)[O-]", "Potency": "inconclusive: 12.6 µM [activator, partial curve, poor fit]"}, {"smiles": "N/C(=N\\OC(=O)c1ccc(Cl)c(Cl)c1)c1cccnc1", "Potency": "inconclusive: 2.82 µM [activator, partial curve, poor fit]"}, {"smiles": "CCOc1ccc(/C=C/c2nc3ccccc3n2S(=O)(=O)c2cccc(Cl)c2)cc1", "Potency": "inconclusive: 1.26 µM [activator, full curve]"}, {"smiles": "C=CCN(c1ccccc1)S(=O)(=O)c1cccc(C(=O)NCC(c2ccc(F)cc2)N2CCOCC2)c1", "note": "(stereo unspecified)", "Potency": "inconclusive: 35.5 µM [inhibitor, single point]"}, {"smiles": "CN(C)S(=O)(=O)c1ccc(C(=O)NCCSc2ccc(Br)cc2)cc1", "activity change, negative = inhibition": "inactive: -23.6%"}, {"smiles": "COc1ccc(C2(c3ccc(OC)cc3)NC(=O)N(CC(=O)Nc3ccc(C(N)=O)cc3)C2=O)cc1", "activity change, negative = inhibition": "inactive: -13.1% [at 46.1 µM]"}, {"smiles": "CC(C)c1ccccc1OCC(=O)NCC(c1cccs1)N1CCOCC1", "note": "(stereo unspecified)", "Potency": "inconclusive: 12.6 µM [inhibitor, partial curve, poor fit]"}, {"smiles": "CCOC(=O)N1CCN(C(=O)CCC2CCCC2)CC1", "Potency": "inconclusive: 35.5 µM [activator, single point]"}, {"smiles": "COc1ccc(NC(=S)N/N=C/c2cccn2Cc2ccc(F)cc2Cl)cc1", "Potency": "inconclusive: 1.58 µM [inhibitor, full curve]"}, {"smiles": "Nc1cc2c(cc1Cl)-c1ccc(Cl)cc1C2", "activity change, negative = inhibition": "inactive: 26.1%"}, {"smiles": "CCOc1ccc(C(=O)Nc2ccc3nc(SCC(=O)N(C)c4ccccc4)sc3c2)cc1", "Potency": "inconclusive: 35.5 µM [inhibitor, single point]"}, {"smiles": "Cc1ccc(-c2csc(SCC(=O)c3c(N)n(C4CC4)c(=O)[nH]c3=O)n2)cc1", "Potency": "inconclusive: 0.794 µM [inhibitor, full curve, poor fit]"}, {"smiles": "Cc1ccc(Cl)cc1NC(=O)N1CCc2cc(S(=O)(=O)N3CCC(C)CC3)ccc21", "activity change, negative = inhibition": "inactive: 22.2% [at 46.1 µM]"}, {"smiles": "CC(C)c1ccc(NC(=S)NCCc2c[nH]c3ccccc23)cc1", "activity change, negative = inhibition": "inactive: 3.5%"}, {"smiles": "COc1cccc(C(=O)Nc2ccc(-c3nnc(-c4ccco4)o3)cc2)c1", "activity change, negative = inhibition": "inactive: 6.84%"}, {"smiles": "CN(Cc1cccs1)C(=O)COc1ccc(-c2nnco2)cc1", "activity change, negative = inhibition": "inactive: 2.07%"}, {"smiles": "COCC(=O)Nc1cc(C)cn(Cc2ccccc2Cl)c1=O", "activity change, negative = inhibition": "inactive: -19.5%"}, {"smiles": "COc1cc(CNCCc2ccccc2)cc(Cl)c1OCc1ccccc1", "Potency": "inconclusive: 12.6 µM [inhibitor, partial curve, poor fit]"}, {"smiles": "CCOc1ccc(C(O)(CCC(C)C)C(CN2CCOCC2)c2ccccc2)cc1", "note": "(stereo unspecified)", "Potency": "inconclusive: 10 µM [inhibitor, partial curve, poor fit]"}, {"smiles": "O=C(Nc1nnc(SCc2ccccc2)s1)C1=COCCO1", "Potency": "inconclusive: 35.5 µM [inhibitor, single point]"}, {"smiles": "COc1cccc(C2(CSc3nnc(-c4cc(OC)c(OC)c(OC)c4)o3)OCCO2)c1", "activity change, negative = inhibition": "inactive: -16.4%"}, {"smiles": "Cc1ccc(C2CC2/C(=N/O)c2ccc(F)cc2)cc1", "note": "(stereo unspecified)", "Potency": "inconclusive: 39.8 µM [inhibitor, partial curve, poor fit]"}, {"smiles": "CNP(=S)(NC)OCCOc1ccc(OC)cc1", "Potency": "inconclusive: 0.282 µM [activator, full curve, poor fit]"}, {"smiles": "C[C@]12CS(=O)(=O)C[C@H]1SC(=S)N2c1ccccc1", "Potency": "inconclusive: 0.631 µM [activator, single point]"}, {"smiles": "Cc1ccccc1OCCCSc1nc2ccccc2[nH]1", "Potency": "inconclusive: 6.31 µM [inhibitor, partial curve]"}, {"smiles": "COc1ccc(-c2ccc(CCC(=O)O)n2NC(=O)c2cccs2)cc1", "Potency": "inconclusive: 3.98 µM [activator, full curve, poor fit]"}, {"smiles": "COc1ccc(OCC(=O)NCCS(=O)(=O)N2CCN(c3ccc(F)cc3)CC2)cc1", "activity change, negative = inhibition": "inactive: -0.979% [at 46.1 µM]"}, {"smiles": "COc1cc(/C=N/NC(=O)c2ccc(-n3cccc3)cc2)ccc1O", "Potency": "inconclusive: 5.62 µM [inhibitor, single point]"}, {"smiles": "Cc1ccc(NC(=O)COC(=O)COc2ccc3ccc(=O)oc3c2)cc1[N+](=O)[O-]", "Potency": "inconclusive: 0.282 µM [activator, partial curve, poor fit]"}, {"smiles": "CCc1cccc(C)c1NC(=O)CCCC(=O)O", "activity change, negative = inhibition": "inactive: 7.13% [at 46.1 µM]"}, {"smiles": "CN(C)/C=N/C(=S)Nc1ccc(Cl)cc1", "Potency": "inconclusive: 22.4 µM [inhibitor, single point]"}, {"smiles": "CNC(=O)c1ccc(-c2ccc(OC)cc2)s1", "Potency": "inconclusive: 0.891 µM [activator, partial curve, poor fit]"}, {"smiles": "O=C(/C=C/c1ccc(Cl)c([N+](=O)[O-])c1)Nc1ccc(NC(=O)c2ccco2)cc1", "Potency": "inconclusive: 8.91 µM [activator, partial curve, poor fit]"}, {"smiles": "CC(C)CCNC(=O)c1sc2ccc(S(=O)(=O)N3CCCCC3)cc2c1N", "Potency": "inconclusive: 12.6 µM [inhibitor, partial curve, poor fit]"}, {"smiles": "COc1cc(/C=N/N2C(=O)C3C4C=CC(CC4)C3C2=O)ccc1O", "note": "(stereo unspecified)", "activity change, negative = inhibition": "inactive: 7.25% [at 46.1 µM]"}, {"smiles": "Cc1ccc(NC(=O)Nc2ccc3oc(C)nc3c2)cc1", "Potency": "inconclusive: 10 µM [inhibitor, partial curve, poor fit]"}, {"smiles": "CCC1(CC)NC(=O)N(CC(=O)N2CCc3ccccc32)C1=O", "Potency": "inconclusive: 28.2 µM [activator, single point]"}, {"smiles": "COc1ccc(CNC(=O)c2ccc3c(c2)CCN3S(=O)(=O)c2ccc(Cl)cc2)cc1", "Potency": "inconclusive: 0.562 µM [inhibitor, full curve, poor fit]"}, {"smiles": "CCC(C)NCCOc1cc(C)cc(C)c1C", "note": "(stereo unspecified)", "Potency": "inconclusive: 22.4 µM [inhibitor, single point]"}, {"smiles": "C/C(CC(=O)NC12CC3CC(CC(C3)C1)C2)=N\\NC(=O)c1ccc(C)cc1", "Potency": "inconclusive: 0.562 µM [activator, full curve, poor fit]"}, {"smiles": "CCN1C(=S)NC(c2cccc(F)c2)C(C(=O)OC)=C1C", "note": "(stereo unspecified)", "Potency": "inconclusive: 0.0042 µM [activator, full curve, poor fit]"}, {"smiles": "O=P(O)(O)/C=C(\\Cl)c1ccccc1", "Potency": "inconclusive: 0.58 µM [inhibitor, full curve]"}, {"smiles": "CN1CCN(c2ccc([N+](=O)[O-])cc2Cl)CC1", "activity change, negative = inhibition": "inactive: -27.1% [at 46.1 µM]"}, {"smiles": "Cc1ccc2nc(-c3ccncc3)cc(C(=O)N3CCOCC3)c2c1", "activity change, negative = inhibition": "inactive: 4.86%"}, {"smiles": "O=C(c1ccccc1)N1N=C(c2ccccc2)CC1c1cccs1", "note": "(stereo unspecified)", "Potency": "inconclusive: 14.1 µM [inhibitor, partial curve]"}, {"smiles": "O=C(OCc1ccccc1F)c1cnc(Cl)c(Cl)c1", "activity change, negative = inhibition": "inactive: -17.8% [at 46.1 µM]"}, {"smiles": "CC1CC(C)(C)NC(=S)N1CCC(=O)Nc1ccc2c(c1)OCCO2", "note": "(stereo unspecified)", "Potency": "active: 11.2 µM"}]}]}
